Source: paper PMC7819943, “Rice protein-binding microarrays: a tool to detect cis-acting elements near promoter regions in rice”
This is one part of the list.

Sequences of proteins named here, by UniProt entry; tags and fusion partners are left off.
UniProt Q0JBA9, entry or part of it: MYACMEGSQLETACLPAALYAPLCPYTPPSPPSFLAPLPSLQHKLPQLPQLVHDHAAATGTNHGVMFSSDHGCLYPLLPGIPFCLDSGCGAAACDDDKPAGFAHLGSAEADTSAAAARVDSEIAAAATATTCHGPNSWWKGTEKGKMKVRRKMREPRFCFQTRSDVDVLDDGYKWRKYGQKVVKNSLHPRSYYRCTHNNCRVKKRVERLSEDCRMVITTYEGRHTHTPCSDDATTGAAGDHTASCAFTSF

biological target: OsWRKY34 (Oryza sativa, UniProt Q0JBA9 1-250); experiment: protein-binding microarray (RPBM); PBS, 2% BSA, 51.3 ng/ul salmon testes DNA, 50 uM zinc acetate, 200 nM TF, 25 C, 1 h; high values mean tight binding; details: protein: recombinant; tags: N-terminal polyhistidine and DsRed monomer fusion (pET32a); label: CyDye5-dUTP incorporated in the synthesized complementary strand; 3' TTTTT single-stranded linker to array surface; dsDNA, one strand shown
Procedure, shortened: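 Polyhistidine-tagged DsRed fusions of transcription factors, joined at the N-terminus, were expressed in E. coli BL21-CodonPlus and isolated on Ni–NTA. They were incubated at 200 nM for 1 h at 25 °C on a custom Agilent array, double-stranded and BSA-blocked, in PBS with 2% BSA, salmon testes DNA and 50 µM zinc acetate. The binding signal is per-feature fluorescence intensity (arbitrary units) read on an Axon 4000B scanner after washing.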

**Q.** Which binding signal does the source give for “GGCGAGGTGGTGTTGAGGGATTTTGGTGGTGTGTTGGAGACGGAGTCACCTAGTGCAG” here?
**A.** 12600 fluorescence intensity (a.u.)

**Q.** With “ACTATCCCCAGGGTCATTTTCCCAGTCAAGCCACCGTAATCGGAGTCACCTAGTGCAG” as the sequence, how does the binding signal read?
**A.** 9700 fluorescence intensity (a.u.)

**Q.** For “AGCGTGCCACGATGAATATCCAAAATTTTATCCACCTTTTCGGAGTCACCTAGTGCAG”, which binding signal is on record?
**A.** 8600 fluorescence intensity (a.u.)

**Q.** Which binding signal does the source give for “TTTGCTGCAGTATTTTGCTCTGCTCTGCTTCTATGCTTGACGGAGTCACCTAGTGCAG” here?
**A.** 8600 fluorescence intensity (a.u.)

**Q.** For “CCGTCGTCTTCACCTTCGCCACCGTCACCGCCGCCGCCGCCGGAGTCACCTAGTGCAG”, which binding signal is on record?
**A.** 13400 fluorescence intensity (a.u.)

**Q.** With “GCCAACCAAGCTCGAGCCAAGCCCGAGCTTTTTTTCCACCCGGAGTCACCTAGTGCAG” as the sequence, how does the binding signal read?
**A.** 8450 fluorescence intensity (a.u.)

**Q.** How did the binding signal turn out when “ACGTTTTTATTCCCAACCCTGACCGAAGTGCCACAACCATCGGAGTCACCTAGTGCAG” was run?
**A.** 8720 fluorescence intensity (a.u.)

**Q.** How did the binding signal turn out when “AAGTCATACCACATTATCACAGCTCGTAACATAAAACTTCCGGAGTCACCTAGTGCAG” was run?
**A.** 9360 fluorescence intensity (a.u.)

**Q.** Which binding signal does the source give for “TAATTCACTCTTTCTTTTTTCATGCATGTTTATGTTTACGCGGAGTCACCTAGTGCAG” here?
**A.** 8720 fluorescence intensity (a.u.)

**Q.** For “CCAACCTGAACTTCTGCATACATGTACACACCCACAGTCACGGAGTCACCTAGTGCAG”, which binding signal is on record?
**A.** 8180 fluorescence intensity (a.u.)

**Q.** With “AGTAAAGTCCATCACCGGTCCCTAAACTTGTACCGCTATGCGGAGTCACCTAGTGCAG” as the sequence, how does the binding signal read?
**A.** 8810 fluorescence intensity (a.u.)

**Q.** How did the binding signal turn out when “CCATCGTACATGTTGACCACTGGCTTGTTGACTTCTCCTCCGGAGTCACCTAGTGCAG” was run?
**A.** 9880 fluorescence intensity (a.u.)

**Q.** “TGCCGCCTGCTTCTCTCTTCGCCCACCGGCTAAGCAACATCGGAGTCACCTAGTGCAG” was tested. Which binding signal did it give?
**A.** 9730 fluorescence intensity (a.u.)

**Q.** Which binding signal does the source give for “CGCTACTAGTTATGGTCCGTTTGCAAAAATCATGGGGACTCGGAGTCACCTAGTGCAG” here?
**A.** 8350 fluorescence intensity (a.u.)

**Q.** For “ATCCAAGGTGCTTATCAGATATTCAGATGCTGGGTTTTCTCGGAGTCACCTAGTGCAG”, which binding signal is on record?
**A.** 9230 fluorescence intensity (a.u.)

**Q.** With “TAAAGTCTTAACTTGTGTGGGATGGGATATTGCATGATGACGGAGTCACCTAGTGCAG” as the sequence, how does the binding signal read?
**A.** 8260 fluorescence intensity (a.u.)

**Q.** How did the binding signal turn out when “TCCACTCTCGAGCTTAATTCATCGTTTCCTTCGTCTTTCCCGGAGTCACCTAGTGCAG” was run?
**A.** 10300 fluorescence intensity (a.u.)

**Q.** “TTCACACGTTGTTATGCATAGGTATTTTTGCTAGTCAAGTCGGAGTCACCTAGTGCAG” was tested. Which binding signal did it give?
**A.** 8720 fluorescence intensity (a.u.)

**Q.** With “TTTTTTTTACCGGCCTAGTTGACCACCAACCAAGCAGTACCGGAGTCACCTAGTGCAG” as the sequence, how does the binding signal read?
**A.** 10100 fluorescence intensity (a.u.)

**Q.** Which binding signal does the source give for “CTTGCTGGTGATACGTACTCGTATAATTATTAATCCTATCCGGAGTCACCTAGTGCAG” here?
**A.** 9860 fluorescence intensity (a.u.)

**Q.** How did the binding signal turn out when “TTTTAACCCTAGGATCCAAATATCATGCACTCCTTTTTTTCGGAGTCACCTAGTGCAG” was run?
**A.** 8820 fluorescence intensity (a.u.)

**Q.** With “TTTCATCTACCTTTGTTTTATTCTGTCGTACTTGGGCTTGCGGAGTCACCTAGTGCAG” as the sequence, how does the binding signal read?
**A.** 8340 fluorescence intensity (a.u.)

**Q.** Which binding signal does the source give for “AAAAATTTTTGGAGGCGGAGGGAAGGGGTGGTGTTGGGGTCGGAGTCACCTAGTGCAG” here?
**A.** 10200 fluorescence intensity (a.u.)

**Q.** For “GTTTGTTTCCTACTAGTGTGCTTCTACTAATCTTGCATTCCGGAGTCACCTAGTGCAG”, which binding signal is on record?
**A.** 9080 fluorescence intensity (a.u.)

**Q.** Which binding signal does the source give for “TAAATTTAGTCATCTCTAGTTGCTTTTACGTCTCCTGAATCGGAGTCACCTAGTGCAG” here?
**A.** 8230 fluorescence intensity (a.u.)

**Q.** How did the binding signal turn out when “CATATCTGCTCCGTGCCATGGTTCTTCTGTCTGGAAAGACCGGAGTCACCTAGTGCAG” was run?
**A.** 13900 fluorescence intensity (a.u.)

**Q.** How did the binding signal turn out when “GTTGTCATTGTCGCGTCGTCACCTCTGATTGCGTCATTCCCGGAGTCACCTAGTGCAG” was run?
**A.** 16500 fluorescence intensity (a.u.)

**Q.** How did the binding signal turn out when “TGAGGGACCTTCGGTGTACTTTTTCCCCGATCCTACACATCGGAGTCACCTAGTGCAG” was run?
**A.** 8580 fluorescence intensity (a.u.)

**Q.** Which binding signal does the source give for “TGTTATCAGCTTTTCTAACCTTTGCGTTCTCACTTTTGACCGGAGTCACCTAGTGCAG” here?
**A.** 8930 fluorescence intensity (a.u.)

**Q.** With “GAATAAAACGAACGGTCAAACATGTTTAAAAAAGTCAACGCGGAGTCACCTAGTGCAG” as the sequence, how does the binding signal read?
**A.** 10300 fluorescence intensity (a.u.)

**Q.** “ACCGACCAATGATGATTTGATTTCCCACTGGACTGGTATACGGAGTCACCTAGTGCAG” was tested. Which binding signal did it give?
**A.** 9440 fluorescence intensity (a.u.)

**Q.** For “TCGTCGTCGTCGTCGTCGCCGCCGCGGCCTGCAATTGCAACGGAGTCACCTAGTGCAG”, which binding signal is on record?
**A.** 9050 fluorescence intensity (a.u.)

**Q.** With “CCTTCTCGCAGTCGCCGCACTCGCCGTCCTCCAGTGGCCTCGGAGTCACCTAGTGCAG” as the sequence, how does the binding signal read?
**A.** 8860 fluorescence intensity (a.u.)

**Q.** With “GGAGCCGCCGGGGCGGGTGGTGGGTGGAAGGCTCCATTGCCGGAGTCACCTAGTGCAG” as the sequence, how does the binding signal read?
**A.** 13800 fluorescence intensity (a.u.)

**Q.** With “AGAAGGAGGAGGAGGAGGAGGAGGAGGAGGGGAGGAGAGCCGGAGTCACCTAGTGCAG” as the sequence, how does the binding signal read?
**A.** 10400 fluorescence intensity (a.u.)

**Q.** How did the binding signal turn out when “CCATTCGTGCGCCCTCAGCCATTGTACCCCTTTTCCACTCCGGAGTCACCTAGTGCAG” was run?
**A.** 9970 fluorescence intensity (a.u.)

**Q.** How did the binding signal turn out when “ATTATGCATGTGATTTGCCATTTTACAGATTATCTCTTTTCGGAGTCACCTAGTGCAG” was run?
**A.** 9590 fluorescence intensity (a.u.)

**Q.** With “TAATGACTTTTTCTTTTGTTTTTGGTGGCTTAACTTCATCCGGAGTCACCTAGTGCAG” as the sequence, how does the binding signal read?
**A.** 9880 fluorescence intensity (a.u.)

**Q.** “AATTTATATTGTTTTGTTATCTTACCCATTTTGTTTACTTCGGAGTCACCTAGTGCAG” was tested. Which binding signal did it give?
**A.** 9580 fluorescence intensity (a.u.)

**Q.** For “CGGTTATCTCTACTCTACAATCTTGTTGTAATTTTTTTCTCGGAGTCACCTAGTGCAG”, which binding signal is on record?
**A.** 8070 fluorescence intensity (a.u.)

**Q.** With “TGCGTGGGCGTCACGTTCGTCGACTACTTGGGCGGGAGGGCGGAGTCACCTAGTGCAG” as the sequence, how does the binding signal read?
**A.** 12900 fluorescence intensity (a.u.)

**Q.** How did the binding signal turn out when “TCCTCATTCCTTGTTTGGTTTCACGTCGAATTCCCTCCAACGGAGTCACCTAGTGCAG” was run?
**A.** 8680 fluorescence intensity (a.u.)
